Reference: PubChem BioAssay AID504786 (Drosophila RNAi Screening Center, 2011)
Purpose: 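Fly genes required for HIF-dependent transcription when hypoxia is mimicked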 (primary screen). Cells: Drosophila S2 cells with a stable HIF luciferase reporter. Knock-down reagent: long dsRNA against Drosophila genes, about 0.2 µg dsRNA per well of a 384-well plate. Time to read-out: three days of knock-down, then 20 h of DFO before reading. Conditions: desferrioxamine (DFO) at 100 µM, an iron chelator that mimics hypoxia, for 20 h. Measurement: 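Firefly luciferase driven by the mouse ldh-a hypoxia-response element, measured after 20 h of 100 µM DFO; z-scores per plate, higher means more signal lost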. Scale: z-score: higher = stronger loss of HIF reporter signal.
In all, the deposit lists about 21,000 reagents; shown is a random part of those that have a named target and a result. 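Primary screen; positive scores mean lost reporter signal, so the sign may be inverted from the usual convention.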

gene knocked down	amplicon	z-score, replicate 1	z-score, replicate 2	z-score, replicate 3	z-score, replicate 4
Zasp52	DRSC06269	1	0.3		
Zasp52	DRSC07121	-0.1	-0.1		
l(2)34Fd	DRSC01911	-0.2	0.9		
CG10598	DRSC19358	0.2	0.8		
CG5084	DRSC06913	0	-0.6		
Lime	DRSC06752	-0.2	-0.4		
Trf4-1	DRSC17775	-0.2	-0.2		
ND-B14.5B	DRSC00346	-0.3	-0.4		
CR46300	DRSC12467	-0.1	0.5		
CG33269	DRSC10585	-0.4	-0.5		
Fur2	DRSC19817	-0.2	0.7		
Sec61beta	DRSC07548	-0.3	-0.1	0.4	0
Zip42C.2	DRSC05004	-0.2	-0.3		
Tret1-2	DRSC07117	-0.4	-0.8		
NimB4	DRSC01884	-0.4	-0.1		
CG31437	DRSC13711	-0.2	-0.8	0	-0.4
CG14238	DRSC14732	0.1	0.9		
Oseg1	DRSC10776	-0.2	-0.4		
Ccp84Ae	DRSC12590	-0.2	0	0.1	-0.5
CG15717	DRSC19684	-0.2	-0.3		
cathD	DRSC07588	-0.2	-0.6		
CG9822	DRSC04568	0	0.9		
tsg	DRSC20380	-0.3	-0.8		
AGO1	DRSC05912	6.1	2.6		
CG4714	DRSC06883	-0.3	-0.9		
N	DRSC18685	-0.3	-0.4		
NtR	DRSC04628	-0.3	-0.7		
uncNacbeta	DRSC00326	-0.1	-0.6		
Smug	DRSC15762	-0.3	-0.3		
CG9903	DRSC20213	-0.1	0.3		
SmB	DRSC03437	5.9	5.3		
Tom70	DRSC02990	0.8	0.7	-0.1	0
CG3699	DRSC18171	-0.4	-0.1		
CG3699	DRSC18642	-0.3	0		

Limited to “z-score, replicate 1”, for 4 of the entries above:
CR46300 [DRSC12467]: -0.1
CG33269 [DRSC10585]: -0.4
Fur2 [DRSC19817]: -0.2
Sec61beta [DRSC07548]: -0.3
